Assay results published in publication PMC8844116.
Results are given in words; binding and its absence hold for the method and conditions named. Binding seen in cells or lysates may run through a third protein. Some results given as binding are weak or reduced against the parent protein; the word gives no strength. Values belong to the molecule of their own block, whether it stands above or below them.

Protein sequences, listed by entry. Tags and fused reporters are not part of them. Residues count along the entry.
UniProt Q15109, residues 23-404: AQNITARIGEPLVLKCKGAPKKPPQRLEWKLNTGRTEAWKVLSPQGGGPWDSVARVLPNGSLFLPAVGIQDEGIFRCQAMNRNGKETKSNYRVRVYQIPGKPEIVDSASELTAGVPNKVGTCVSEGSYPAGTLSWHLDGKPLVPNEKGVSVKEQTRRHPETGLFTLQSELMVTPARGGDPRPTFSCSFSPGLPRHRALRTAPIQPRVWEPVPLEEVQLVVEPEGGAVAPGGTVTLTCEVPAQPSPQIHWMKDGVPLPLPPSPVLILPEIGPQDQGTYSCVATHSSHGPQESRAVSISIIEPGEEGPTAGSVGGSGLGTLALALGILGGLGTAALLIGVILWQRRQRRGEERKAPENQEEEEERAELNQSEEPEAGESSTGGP
UniProt Q62151, residues 23-402: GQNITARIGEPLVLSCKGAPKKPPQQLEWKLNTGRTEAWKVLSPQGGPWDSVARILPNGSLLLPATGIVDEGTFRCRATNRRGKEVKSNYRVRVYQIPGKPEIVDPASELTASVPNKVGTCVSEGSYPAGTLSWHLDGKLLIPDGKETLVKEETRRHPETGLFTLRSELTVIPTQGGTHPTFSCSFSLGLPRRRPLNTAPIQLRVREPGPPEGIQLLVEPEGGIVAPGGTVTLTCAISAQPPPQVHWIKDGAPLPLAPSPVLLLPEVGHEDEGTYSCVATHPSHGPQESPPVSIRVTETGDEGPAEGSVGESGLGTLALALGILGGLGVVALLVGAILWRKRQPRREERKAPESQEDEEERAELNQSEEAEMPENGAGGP
UniProt Q8K2Y9: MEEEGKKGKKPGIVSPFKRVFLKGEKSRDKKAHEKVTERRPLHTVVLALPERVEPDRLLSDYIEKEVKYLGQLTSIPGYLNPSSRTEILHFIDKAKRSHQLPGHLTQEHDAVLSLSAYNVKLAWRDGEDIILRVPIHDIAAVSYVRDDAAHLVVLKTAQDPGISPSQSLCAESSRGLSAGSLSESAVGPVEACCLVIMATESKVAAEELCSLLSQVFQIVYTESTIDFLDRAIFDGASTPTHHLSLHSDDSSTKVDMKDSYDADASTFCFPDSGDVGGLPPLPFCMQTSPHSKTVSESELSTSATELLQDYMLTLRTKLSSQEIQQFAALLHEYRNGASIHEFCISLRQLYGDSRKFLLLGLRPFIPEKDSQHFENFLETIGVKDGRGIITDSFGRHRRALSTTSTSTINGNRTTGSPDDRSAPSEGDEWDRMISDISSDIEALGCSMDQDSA
UniProt Q9BSQ5: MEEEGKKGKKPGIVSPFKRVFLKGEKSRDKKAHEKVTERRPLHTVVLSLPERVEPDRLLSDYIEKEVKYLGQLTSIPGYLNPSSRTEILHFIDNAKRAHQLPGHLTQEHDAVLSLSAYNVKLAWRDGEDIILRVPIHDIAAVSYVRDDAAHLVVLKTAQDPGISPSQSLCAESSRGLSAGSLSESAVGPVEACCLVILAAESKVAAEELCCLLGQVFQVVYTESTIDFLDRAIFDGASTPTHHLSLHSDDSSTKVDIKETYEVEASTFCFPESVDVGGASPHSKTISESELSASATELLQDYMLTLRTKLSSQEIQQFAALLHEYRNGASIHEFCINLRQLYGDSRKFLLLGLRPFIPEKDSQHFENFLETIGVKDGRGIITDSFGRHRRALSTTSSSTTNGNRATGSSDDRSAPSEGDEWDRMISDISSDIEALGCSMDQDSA

Assays:
[1] = molecular target: T1, MEKK3, endogenous in mouse hippocampus (mouse (endogenous in hippocampus)) (UniProt Q61084); assay: co-IP; endogenous proteins of the hippocampus of db/db and db/m mice; groups db/m, db/db, corn oil; immunoprecipitation and immunoblot
T1 sequence: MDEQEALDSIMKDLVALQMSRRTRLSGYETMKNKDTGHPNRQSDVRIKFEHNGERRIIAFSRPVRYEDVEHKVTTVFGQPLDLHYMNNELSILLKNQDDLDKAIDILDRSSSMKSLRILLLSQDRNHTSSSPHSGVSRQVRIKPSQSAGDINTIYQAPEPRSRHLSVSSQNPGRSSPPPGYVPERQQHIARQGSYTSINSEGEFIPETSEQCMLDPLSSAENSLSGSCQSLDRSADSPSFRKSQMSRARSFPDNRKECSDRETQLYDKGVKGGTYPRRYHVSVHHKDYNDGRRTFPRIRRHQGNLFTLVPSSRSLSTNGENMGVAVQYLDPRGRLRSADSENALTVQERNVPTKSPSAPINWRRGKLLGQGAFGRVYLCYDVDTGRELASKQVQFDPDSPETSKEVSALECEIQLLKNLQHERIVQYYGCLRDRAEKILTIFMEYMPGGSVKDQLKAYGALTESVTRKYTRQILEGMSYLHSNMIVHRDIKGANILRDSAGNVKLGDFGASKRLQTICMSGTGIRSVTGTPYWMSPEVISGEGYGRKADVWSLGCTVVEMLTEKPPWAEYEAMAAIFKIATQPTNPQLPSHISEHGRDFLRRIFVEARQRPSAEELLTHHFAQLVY

[2] = molecular target: T1, MEKK3, endogenous in mouse hippocampus (mouse (endogenous in hippocampus)); assay: co-IP; endogenous proteins of the hippocampus of C57BL/6 mice with high fat diet and STZ-induced diabetes and of control mice; groups Con, DM, FPS-ZM1 1.0 mg/kg, corn oil; immunoprecipitation and immunoblot
[3] = molecular target: T1, MEKK3, endogenous in mouse hippocampus (mouse (endogenous in hippocampus)); assay: condition: only mice treated with FPS-ZM1 1.0 mg/kg; co-IP; endogenous proteins of the hippocampus of db/db mice treated with the RAGE antagonist FPS-ZM1 (1.0 mg/kg daily, 8 weeks); immunoprecipitation and immunoblot
[4] = molecular target: T2, MEKK3, endogenous in HEK-293T cells (human (endogenous in HEK-293T)) (UniProt Q99759); assay: co-IP; endogenous proteins of HEK-293T cells; groups: normal glucose 25 mM, high glucose 80 mM for 24 h, high glucose with DMSO, mannitol control; immunoprecipitation buffer 50 mM HEPES pH 7.1, 150 mM NaCl, 1% Triton X-100, 0.5% NP-40; protein A/G-agarose, 4°C; immunoblot
T2 sequence: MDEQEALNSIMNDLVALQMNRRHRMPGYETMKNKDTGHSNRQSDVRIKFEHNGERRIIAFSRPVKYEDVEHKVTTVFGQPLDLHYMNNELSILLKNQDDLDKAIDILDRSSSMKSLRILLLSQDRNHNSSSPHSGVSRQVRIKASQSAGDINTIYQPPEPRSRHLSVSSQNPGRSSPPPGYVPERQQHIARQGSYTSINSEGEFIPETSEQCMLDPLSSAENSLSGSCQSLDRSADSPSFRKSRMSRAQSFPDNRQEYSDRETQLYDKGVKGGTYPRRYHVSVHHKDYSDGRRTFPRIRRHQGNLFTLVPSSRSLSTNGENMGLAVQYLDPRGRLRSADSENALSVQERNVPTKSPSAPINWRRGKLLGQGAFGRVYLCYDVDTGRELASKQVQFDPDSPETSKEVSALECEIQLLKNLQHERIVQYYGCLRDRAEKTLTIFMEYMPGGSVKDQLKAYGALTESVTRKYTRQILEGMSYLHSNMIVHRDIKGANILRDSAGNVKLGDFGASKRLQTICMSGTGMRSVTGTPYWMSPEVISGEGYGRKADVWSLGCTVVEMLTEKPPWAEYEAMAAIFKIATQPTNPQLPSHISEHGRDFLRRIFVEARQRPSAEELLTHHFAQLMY

[5] = molecular target: receptor for advanced glycation end products (RAGE), endogenous in HEK-293T cells (human (endogenous in HEK-293T)) (UniProt Q15109); assay: co-IP; endogenous proteins of HEK-293T cells in high glucose (80 mM, 24 h) treated with the RAGE antagonist FPS-ZM1 (2.5 μM); same immunoprecipitation as a1
[6] = molecular target: receptor for advanced glycation end products (RAGE), endogenous in HEK-293T cells (human (endogenous in HEK-293T)) (UniProt Q15109); assay: co-IP; endogenous proteins of HEK-293T cells; groups: normal glucose 25 mM, high glucose 80 mM for 24 h, high glucose with DMSO, mannitol control; immunoprecipitation buffer 50 mM HEPES pH 7.1, 150 mM NaCl, 1% Triton X-100, 0.5% NP-40; protein A/G-agarose, 4°C; immunoblot
[7] = molecular target: receptor for advanced glycation end products (RAGE), endogenous in mouse hippocampus (mouse (endogenous in hippocampus)) (UniProt Q62151); assay: co-IP; endogenous proteins of the hippocampus of db/db and db/m mice; groups db/m, db/db, corn oil; immunoprecipitation and immunoblot
[8] = molecular target: Flag-RAGE wild type (LV-Flag-RAGE-wt, wild-type ctRAGE) (mouse) (UniProt Q62151); assay: co-IP; RAGE-knockdown HT22 cells transfected with LV-Flag-RAGE-wt or -mut, high glucose 50 mM for 24 h; immunoprecipitation, immunoblot with anti-Flag and anti-MKK3
[9] = molecular target: Flag-RAGE wild type (LV-Flag-RAGE-wt, wild-type ctRAGE) (mouse) (UniProt Q62151); assay: co-IP; hippocampus of db/db mice with RAGE knock-down (LV-RAGE-shRNA) injected with LV-Flag-RAGE-wt or -mut; immunoprecipitation, immunoblot with anti-Flag and anti-MKK3
[10] = molecular target: T1, MEKK3, endogenous in mouse hippocampus (mouse (endogenous in hippocampus)); assay: co-IP; endogenous proteins of the hippocampus of C57BL/6 mice with high fat diet and STZ-induced diabetes and of control mice; groups Con, DM, FPS-ZM1 1.0 mg/kg, corn oil; immunoprecipitation and immunoblot; remark: listed apart in the source
[11] = molecular target: receptor for advanced glycation end products (RAGE), endogenous in mouse hippocampus (mouse (endogenous in hippocampus)) (UniProt Q62151); assay: as above
[12] = molecular target: receptor for advanced glycation end products (RAGE), endogenous in mouse hippocampus (mouse (endogenous in hippocampus)) (UniProt Q62151); assay: condition: only mice treated with FPS-ZM1 1.0 mg/kg; co-IP; endogenous proteins of the hippocampus of db/db mice treated with the RAGE antagonist FPS-ZM1 (1.0 mg/kg daily, 8 weeks); immunoprecipitation and immunoblot

- binding [1]: binds
- binding [2]: binds
- binding [3]: no binding
Molecule: osmosensing scaffold protein for MEKK3 (OSM), endogenous in mouse hippocampus (from UniProt Q8K2Y9 1-453)

- binding [4]: binds
Molecule: osmosensing scaffold protein for MEKK3 (OSM), endogenous in HEK-293T cells (from UniProt Q9BSQ5 1-444)

- binding [4]: binds
- binding [6]: binds
B1: mitogen-activated protein kinase kinase 3 (MKK3), endogenous in HEK-293T cells (enzyme, UniProt P46734 1-347)
chain: MESPASSQPASMPQSKGKSKRKKDLRISCMSKPPAPNPTPPRNLDSRTFITIGDRNFEVEADDLVTISELGRGAYGVVEKVRHAQSGTIMAVKRIRATVNSQEQKRLLMDLDINMRTVDCFYTVTFYGALFREGDVWICMELMDTSLDKFYRKVLDKNMTIPEDILGEIAVSIVRALEHLHSKLSVIHRDVKPSNVLINKEGHVKMCDFGISGYLVDSVAKTMDAGCKPYMAPERINPELNQKGYNVKSDVWSLGITMIEMAILRFPYESWGTPFQQLKQVVEEPSPQLPADRFSPEFVDFTAQCLRKNPAERMSYLELMEHPFFTLHKTKKTDIAAFVKEILGEDS
- binding [5]: no binding (condition: cells treated with 2.5 μM FPS-ZM1)

- binding [1]: binds
- binding [7]: binds
- binding [8]: binds
- binding [9]: binds
- binding [10]: binds
- binding [11]: binds
- binding [3]: no binding
- binding [12]: no binding
B2: mitogen-activated protein kinase kinase 3 (MKK3), endogenous in mouse hippocampus and HT22 cells (enzyme, UniProt O09110 1-347)
chain: MESPAASPPASLPQTKGKSKRKKDLRISCVSKPPVSNPTPPRNLDSRTFITIGDRNFEVEADDLVTISELGRGAYGVVEKVRHAQSGTIMAVKRIRATVNTQEQKRLLMDLDINMRTVDCFYTVTFYGALFREGDVWICMELMDTSLDKFYRKVLEKNMKIPEDILGEIAVSIVRALEHLHSKLSVIHRDVKPSNVLINKEGHVKMCDFGISGYLVDSVAKTMDAGCKPYMAPERINPELNQKGYNVKSDVWSLGITMIEMAILRFPYESWGTPFQQLKQVVEEPSPQLPADQFSPEFVDFTSQCLRKNPAERMSYLELMEHPFFTLHKTKKTDIAAFVKEILGEDS
